Test results from patent US11773137B2, “Arid5a peptide inhibitors” (KING FAISAL UNIVERSITY, priority 2019, dated 2023).
Residue numbers refer to the chain shown, from its start. Not every detail of the peptide structures is certain; ends, links or a residue may be inferred. Where no end group is shown, it is not given here.

Tests used:
[1] = biological target: T1, mutant Flag-Arid5a (substitutions at residues 56-58, 133-134 and 137) binding to STAT3 SL (Mus musculus, UniProt Q3U108, F56C/L133A/L57A/V134A/V58A/Y137A); assay: STAT3 SL (RNA)-protein (mutant Arid5a)-binding assay
T1 sequence (Q3U108 1-590 F56C/L57A/V58A/L133A/V134A/Y137A): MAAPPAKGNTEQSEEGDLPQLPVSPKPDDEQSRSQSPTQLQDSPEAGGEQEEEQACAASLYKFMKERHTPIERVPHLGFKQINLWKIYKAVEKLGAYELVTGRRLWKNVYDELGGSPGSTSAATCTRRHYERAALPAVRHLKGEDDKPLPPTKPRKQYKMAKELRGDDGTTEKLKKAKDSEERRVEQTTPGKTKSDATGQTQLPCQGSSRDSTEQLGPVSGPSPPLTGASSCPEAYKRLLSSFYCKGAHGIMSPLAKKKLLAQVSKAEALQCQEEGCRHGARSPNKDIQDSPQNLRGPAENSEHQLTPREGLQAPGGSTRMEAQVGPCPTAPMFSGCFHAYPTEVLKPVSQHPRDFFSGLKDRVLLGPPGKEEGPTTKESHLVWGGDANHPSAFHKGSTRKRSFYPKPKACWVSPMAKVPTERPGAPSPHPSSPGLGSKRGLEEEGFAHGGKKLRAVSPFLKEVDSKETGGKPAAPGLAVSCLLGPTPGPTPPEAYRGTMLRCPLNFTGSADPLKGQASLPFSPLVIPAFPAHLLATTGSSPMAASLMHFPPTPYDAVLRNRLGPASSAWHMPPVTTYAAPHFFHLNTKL

[2] = biological target: T2, mutant Flag-Arid5a (substitutions at residues 56-58, 133-134 and 137) binding to OX40 ADE-like SL (Mus musculus, UniProt Q3U108, F56C/L133A/L57A/V134A/V58A/Y137A); assay: OX40 ADE-like SL (RNA)-protein (mutant Arid5a)-binding assay
T2 sequence (Q3U108 1-590 F56C/L57A/V58A/L133A/V134A/Y137A): T1 sequence (Q3U108 1-590 F56C/L57A/V58A/L133A/V134A/Y137A)

[3] = biological target: T3, Flag-Arid5a (WT) binding to STAT3 SL (Mus musculus, UniProt Q3U108); assay: STAT3 SL (RNA)-protein (Arid5a)-binding assay; settings: PIA 20, 40 and 60 μM, versus scramble peptide
T3 construct: expressed in transfected cells; host or cells: HEK293T
T3 sequence (Q3U108 1-590): T1 sequence (Q3U108 1-590 F56C/L57A/V58A/L133A/V134A/Y137A) with C56F, A57L, A58V, A133L, A134V, A137Y

[4] = biological target: T4, Flag-Arid5a (wild-type; WT) binding to OX40 ADE-like SL (Mus musculus, UniProt Q3U108); assay: OX40 ADE-like SL (RNA)-protein (Arid5a)-binding assay; settings: PIA 20, 40 and 60 μM, versus scramble peptide
T4 construct: expressed in transfected cells; host or cells: HEK293T
T4 sequence (Q3U108 1-590): T1 sequence (Q3U108 1-590 F56C/L57A/V58A/L133A/V134A/Y137A) with C56F, A57L, A58V, A133L, A134V, A137Y

polarized Th17 cells = assay: IL-17 production by naïve CD4+ T cells cultured under Th17-polarizing conditions; type: cell-based; settings: PIA at 15, 30 and 45 μM; 72 h culture under Th17-polarizing conditions
Description: Naïve CD4^+ T cells were isolated from the spleen using MACS® CD4^+CD62L^+ isolation kit (Miltenyi Biotec). The isolated CD4^+CD62L^+ T cells were cultured in the presence of anti-CD3/CD28 dynabeads (Invitrogen), IL-6 (30 ng/mL; R&D Systems), transforming growth factor TGF-β1 (4 ng/mL; R&D Systems), anti-interferon IFN-γ and anti-IL-4 (10 μg/mL; Biolegend) for 72 h.
The intensities of Arid5a immunoblot bands and IL-17 concentrations are presented as mean±SD from at least three independent experiments produced similar results. The statistical significance between mean values was tested by one-way ANOVA. *p<0.05 was considered significant.
Arid5a plays an important role in the production of IL-17, a cytokine that plays pivotal roles in chronic inflammation and autoimmune diseases such as MS and rheumatoid arthritis, and cancer. Therefore, the effects of PIA (SEQ ID NO: 2) on IL-17 production by naïve CD4^+ cells cultured under Th17-polarizing conditions were examined. The CD4^+CD62L^+ T cells were cultured in the presence of anti-CD3/CD28 dynabeads, IL-6, TGF-β1, anti-IFN-γ and anti-IL-4.

[5] = PIA 60 μM, Pocket X mutations at residues 56-58, 133-134 and 137
[6] = lysates of transfected HEK293T cells

ACTVGGYE [PIA, ACTVGGYE]
inhibitory effect on RNA-binding activity of mutant Arid5a to the STAT3 SL (FIG. 4A) [1, 5]: abolished the inhibitory effects of PIA | absolute intensities of Arid5a protein bands in STAT3 SL-derived eluate, mutant versus WT Arid5a (FIG. 4B) ([1]; in the presence of PIA 60 μM): significantly higher with mutant Arid5a compared with the WT counterpart | inhibitory effect on RNA-binding activity of mutant Arid5a to the OX40 ADE-like SL (FIG. 3A) [2, 5]: abolished the inhibitory effects of PIA | absolute intensities of Arid5a protein bands in OX40 ADE-like SL-derived eluates, mutant versus WT Arid5a (FIG. 3B) ([2]; in the presence of PIA 60 μM): significantly higher with mutant Arid5a compared with the WT counterpart | inhibition of RNA-binding activity of Arid5a to the SL in the 3′UTR of STAT3 mRNA (immunoblot, FIG. 2A) [3, 6]: inhibited RNA-binding activity of Arid5a to the identified SL in the 3′UTR of STAT3 mRNA, in a concentration-dependent manner | absolute intensities of Arid5a protein bands in the STAT3 SL-derived eluates (FIG. 2B) [3]: significant reduction | inhibition of RNA-binding activity of Arid5a to the ADE-like SL in the 3′UTR of OX40 mRNA (immunoblot, FIG. 1A) [4, 6]: inhibited RNA-binding activity of Arid5a to the ADE-like SL in the 3′UTR of OX40 mRNA, in a concentration-dependent manner | absolute intensities of Arid5a protein bands in the OX40 ADE-like SL-derived eluates (FIG. 1B) [4]: significant reduction | IL-17 production by polarized Th17 cells (FIG. 5) (polarized Th17 cells): reduced IL-17 production by polarized Th17 cells in a concentration-dependent manner
